Measured values published in patent US20210260091A1, “USE OF SALIDROSIDE AND DERIVATIVE THEREOF IN PREPARATION OF INHIBITOR MEDICAMENT FOR DISEASES OF OPHTHALMIC FIBROSIS CAUSED BY ABNORMALITIES OF EXTRACELLULAR MATRIX PROTEINS” (priority 2018, published 2021).
For at least one compound, name, drawing or mass did not settle the structure.

Tested on: laminin (LN), collagen IV (Col-IV) and fibronectin (FN) mRNA in trabecular meshwork cells
Test: qRT-PCR of extracellular matrix expression in dexamethasone-induced normal human trabecular meshwork cells
Assay type: cell-based
Procedure: Normal Trabecular Meshwork cells (NTM) were cultured with F12 containing 10% fetal bovine serum (FBS). When the normal human trabecular meshwork cells were 75%-80% confluent, cells were digested with pancreatic enzymes and planted into a 6-well plate with 2 mL culture media per well.
Normal human normal trabecular meshwork cells were used as a untreated control group. Normal human trabecular meshwork cells with dexamethasone added were used as the experimental control group. Normal human trabecular meshwork cells with dexamethasone and different concentrations of salidroside added were used as the experimental groups (The concentration of dexamethasone used in the experimental control group and the experimental groups was 10^−7 mol/L. The concentrations of salidroside were 1, 3, 10, 30, 100 μmol/L, respectively). The trabecular meshwork cells were cultured for 0, 3, 6, 12, 24, 48 h.
Primer sequences for laminin (LN), collagen IV (Col-IV) and fibronectin (FN) mRNA were designed. Messenger RNA levels of LN, Col-IV, and FN were detected with qRT-PCR. Anti-LN, anti-Col-IV, and anti-FN antibodies were used to detect protein expression of the trabecular meshwork extracellular matrix protein in immunocytochemistry.
FIGS. 1-3 show the effect of salidroside detected by the qRT-PCR on the extracellular matrix proteins of human trabecular meshwork induced by the dexamethasone. […]

C[C@@H]1C[C@H]2[C@@H]3CCC4=CC(=O)C=C[C@]4(C)[C@@]3(F)[C@@H](O)C[C@]2(C)[C@@]1(O)C(=O)CO [dexamethasone, reference compound]
expression of TGF beta, FN, COL-IV, LN and other proteins in cells (applicant's previous studies, dexamethasone alone): induces
extracellular matrix proteins of the normal trabecular meshwork (qRT-PCR) (dexamethasone 10^-7 mol/L alone vs untreated cells): increased
